PubChem BioAssay AID595 (National Center for Advancing Translational Sciences (NCATS), 2007)
Among all 71,000 compounds or so, about 310 (0.44%) were called active. Inconclusive results, whose numbers are uncertain, are shown with a selection of clear calls. The call rests on the fitted dose curve; in most records, active means well fitted curve in either direction with a large enough effect; inconclusive means small, poorly fitted or top-dose-only effect, or another doubt; inactive means flat fitted curve, though single readings scatter. Potencies beside an inconclusive call are fits to weak or partial responses and may not hold up.

Each molecule was assayed on Hsp90 C-terminal peptide / TPR2A (Hop) interaction, human (assay: qHTS Assay for Disrupters of an Hsp90 Co-Chaperone Interaction). Details: AlphaScreen TPR2A-His6 binding biotin-Hsp90 C-terminal peptide; activity change, negative = inhibition: at 57 µM (top of the series) unless noted.
Text: NIH Chemical Genomics Center [NCGC]
NIH Molecular Libraries Screening Centers Network [MLSCN]
Hsp90 (heat shock protein 90) is the essential molecular chaperone and it accounts for 1-2% of all cytosolic proteins and is critical for the activity of diverse cellular proteins that are involved in a variety of cellular processes, including development, cell cycle, and steroid hormone signaling. Its client proteins include signaling kinases such as IGF1R, Akt, v-Src, Raf-1; regulators of cell survival such as Bcr-Abl; and transcription factors such as mutated p53, estrogen and progesterone receptors. Hsp90 has emerged as an important target for cancer treatment due to its essential role in maintaining transformation and regulating the function of oncogenic signaling proteins.
The in vivo function of Hsp90 is regulated by the binding and hydrolysis of ATP at its N-terminal. Geldanamycin binds to ATP site and inhibit Hsp90 function. Geldanamycin and its analogues are under clinical trials in cancer patients.
This domain contains the binding site for tetratricopeptide repeat (TPR) domains on HOP (Hsp Organizing Protein). TPR is a structural motif used by a significant number of cochaperones by which the in vivo function of Hsp90 is regulated. TPR2A on HOP binds specifically to MEEVD motif of the C-terminal of Hsp90.
A homogeneous AlphaScreen is developed to assess the interaction between TPR2A and MEEVD motif of the C-terminal of Hsp90 by using the isolated TPR2A domain and a synthesized 20mer Hsp90 C terminal peptide. AlphaScreen is two bead-based proximity-dependent chemical energy transfer luminescent assay platform. TPR2A-His-6 and biotinylated Hsp90 C terminal peptide will bring streptavidin donor beads and nickel chelate acceptor beads to a proximity range (less than 200 nm), and subsequently lead a chemical luminescent reaction upon exciting donor beads with 680 nm laser. Inhibition of TPR2A and MEEVD motif interaction by small molecules could attenuate or abolish this chemical luminescent reaction.
Counter screening: Biotinylated-His-6 (PerkinElmer) can be utilized as a counter screen, as it serves as a linker to bring streptavidin beads and nickel chelate beads together. The counter screen can exclude alpha screen platform false positives due to small molecules being metal chelators, biotin analogues and imidazole analogues, or due to interfering with oxygen release from donor beads. Such an assay should be utilized to qualify any activity observed in this screen.
NCGC Assay Protocol Summary:
The assay was performed on 1536-well white plate (untreated solid bottom). Liquids were dispensed by 1536-well plate washer (Kalypsys, San Diego, CA). Plates were read on EnVision (PerkinElmer, Boston, MA).TPR2A-His6 was produced using a bacteria expression system and purified using a well developed method (Ghosh et al., 2000). Hsp90 C terminal 20-mer peptide with or without an N-terminal biotin group are synthesized using automated solid phase synthesis by the Yale Keck facility. The composition of assay buffer was (in mM) 25 HEPES, 100 KCl, 2 MgCl2 and 2 DTT; 0.1% BSA and 0.01% Tween-20. TPR2A-His6 binding to biotin-Hsp90 will bring streptavidin donor beads and nickel chelate acceptor beads (PerkinElmer) together and can be measured by Alpha reading by EnVision (PerkinElmer). Free Hsp90 blocks biotin-Hsp90 binding to TPR2 and serves as a positive control in the current asssay.
The assay was performed at room temperature. All compounds were screened as titrations from […] to 46 uM final concentration. The assay was performed in 1536-well format plates (untreated white solid bottom, Corning Inc.) as follows:
Sequence,Parameter,Value,Description
1,Reagent,3 uL TPR2A-His6,Final concentration was 5nM
2,Compound,23 nL,Final titration was from 0.7 nM to 46 uM
3,Time,15 minutes,Room temperature
4,Reagent,1 uL biotin-Hsp90,With and without free Hsp90. Final concentration was 10 nM for biotin-Hsp90 and 10uM for free Hsp90.
5,Time,1 hour,Room temperature
[…]
On the % scale 0 is the no-effect control and ±100 the full control effect; potency means the concentration at half of the fitted maximal effect.

Row | Compound | activity change, negative = inhibition | Potency
1 | COc1ccc(-c2nc(C3CCCCC3)no2)cc1OC | inconclusive: 104% | –
2 | CC(=O)[C@@H]1CC[C@@H]2[C@@H]3CC=C4C[C@H](OS(=O)(=O)O)CC[C@@]4(C)[C@H]3CC[C@]21C | inactive: -3.46% | –
3 | O=C(Nc1nnc(C2CC2)o1)c1ccc(S(=O)(=O)N2CCCc3ccccc32)cc1 | – | inconclusive: 31.6 µM [inhibitor, single point]
4 | COc1ccc(C2c3c(-c4ccccc4O)n[nH]c3C(=O)N2CCc2ccc(OC)c(OC)c2)cc1 (centres undefined) | inconclusive: 11.8% | –
5 | CSc1cc(C)nc(NC(C)=O)n1 | inconclusive: 55.9% | –
6 | Cc1ccc2[nH]c(=O)c(-c3nc4cc(C)ccn4c3NCc3ccco3)cc2c1 | inactive: -6.25% | –
7 | COc1ccc(-c2nc(CS(=O)CC(=O)NCCCN3CCCC3)c(C)o2)cc1OC (centres undefined) | – | inconclusive: 39.8 µM [inhibitor, single point]
8 | COc1cc(OC)cc(-c2cc3nc4c(c(N5CCN(c6cnccn6)CC5)n3n2)CCCC4)c1 | inactive: 0.864% | –
9 | CC1=C(C#N)C(=O)N(C)C(C)(C)C1 | inactive: -2.61% | –
10 | Cc1cnc(C(=O)OCC(=O)NC(=O)NC(C)C)cn1 | inconclusive: 32.8% | –
11 | O=c1c2ccccc2sn1-c1cc(S(=O)(=O)N2CCOCC2)ccc1N1CCOCC1 | inactive: -13.2% | –
12 | CC1=CC(C)(C)N2C(=O)C3(SCC(=O)N3c3ccc(O)cc3)c3cc(C)cc1c32 (centres undefined) | inactive: -6.58% | –
13 | Oc1ccc(CNc2ccc(F)cc2)c2cccnc12 | – | active: 7.94 µM
14 | CCC(c1nnnn1CC1CCCO1)N(CCN1CCOCC1)Cc1cc2cc(C)ccc2[nH]c1=O (centres undefined) | inactive: -2.86% | –
15 | O=C(Nc1ccc(S(=O)(=O)N2CCOCC2)cc1)c1ccc(Br)o1 | inconclusive: 44.3% | –
16 | CN(C(=O)c1ccno1)c1nnc(-c2ccccn2)s1 | – | inconclusive: 25.1 µM [inhibitor, partial curve]
17 | Cc1cc(C(=O)OCn2nnc3ccccc3c2=O)c(C)n1-c1ccccc1 | inconclusive: 44.1% | –
18 | CC(=O)Nc1cc(OC(C)=O)c2nonc2c1OC(C)=O | – | inconclusive: 39.8 µM [inhibitor, single point]
19 | CCOc1ccc(C(=O)C(c2ccccc2)N2CCOCC2)cc1 (centres undefined) | inactive: -1% | –
20 | CCOc1ccc(-c2nnc3sc(COc4ccc(C)cc4)nn23)cc1 | inactive: -4.36% | –
21 | Cc1ccc(/C=N/c2sc3c(c2C#N)CCCCC3)o1 | inactive: -3.54% | –
22 | CC1CCN(c2nc(-c3ccc(F)cc3)cc(C(F)(F)F)n2)CC1 | – | inconclusive: 31.6 µM [activator, single point]
23 | O=c1c(-c2cccs2)nc2cnc(Oc3ccccc3)nc2n1C1CC1 | – | active: 20 µM [activator]
24 | COc1cccc(Cn2c(=O)c(-c3ccc(F)cc3)nc3cnc(N(C)C)nc32)c1 | inactive: -0.898% | –

Complete entries, looked up by structure. Order of values: activity change, negative = inhibition	Potency
CCOc1ccc(C(=O)C(c2ccccc2)N2CCOCC2)cc1 (centres undefined) reads inactive: -1%	–
Oc1ccc(CNc2ccc(F)cc2)c2cccnc12 reads –	active: 7.94 µM
